The values below come from PMC9508553.

Chains of the proteins cited; added tags and fusions are not shown. Lines headed by an entry give the natural chain unless they say otherwise; changes in a name come on top.
UniProt P10961: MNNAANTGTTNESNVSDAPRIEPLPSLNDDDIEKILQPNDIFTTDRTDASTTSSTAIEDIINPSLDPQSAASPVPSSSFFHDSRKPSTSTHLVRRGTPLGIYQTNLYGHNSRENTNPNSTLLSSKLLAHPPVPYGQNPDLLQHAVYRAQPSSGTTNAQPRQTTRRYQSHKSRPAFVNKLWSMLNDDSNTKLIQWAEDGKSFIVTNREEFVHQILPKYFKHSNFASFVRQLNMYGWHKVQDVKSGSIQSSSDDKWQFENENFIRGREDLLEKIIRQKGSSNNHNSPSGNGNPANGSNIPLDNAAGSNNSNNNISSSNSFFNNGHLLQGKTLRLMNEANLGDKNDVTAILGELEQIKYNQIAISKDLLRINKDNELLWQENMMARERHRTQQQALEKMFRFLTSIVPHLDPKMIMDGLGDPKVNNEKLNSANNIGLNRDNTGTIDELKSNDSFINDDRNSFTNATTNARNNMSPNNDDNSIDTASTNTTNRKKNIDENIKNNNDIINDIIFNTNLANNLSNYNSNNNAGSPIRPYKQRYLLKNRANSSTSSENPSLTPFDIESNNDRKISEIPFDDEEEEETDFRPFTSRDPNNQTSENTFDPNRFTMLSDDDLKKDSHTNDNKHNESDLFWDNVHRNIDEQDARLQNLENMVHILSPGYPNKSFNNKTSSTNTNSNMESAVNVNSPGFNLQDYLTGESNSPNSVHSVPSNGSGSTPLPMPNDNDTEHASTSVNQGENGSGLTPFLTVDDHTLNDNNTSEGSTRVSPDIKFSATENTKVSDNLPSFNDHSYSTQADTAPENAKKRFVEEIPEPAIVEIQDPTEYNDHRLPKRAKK
UniProt P10591: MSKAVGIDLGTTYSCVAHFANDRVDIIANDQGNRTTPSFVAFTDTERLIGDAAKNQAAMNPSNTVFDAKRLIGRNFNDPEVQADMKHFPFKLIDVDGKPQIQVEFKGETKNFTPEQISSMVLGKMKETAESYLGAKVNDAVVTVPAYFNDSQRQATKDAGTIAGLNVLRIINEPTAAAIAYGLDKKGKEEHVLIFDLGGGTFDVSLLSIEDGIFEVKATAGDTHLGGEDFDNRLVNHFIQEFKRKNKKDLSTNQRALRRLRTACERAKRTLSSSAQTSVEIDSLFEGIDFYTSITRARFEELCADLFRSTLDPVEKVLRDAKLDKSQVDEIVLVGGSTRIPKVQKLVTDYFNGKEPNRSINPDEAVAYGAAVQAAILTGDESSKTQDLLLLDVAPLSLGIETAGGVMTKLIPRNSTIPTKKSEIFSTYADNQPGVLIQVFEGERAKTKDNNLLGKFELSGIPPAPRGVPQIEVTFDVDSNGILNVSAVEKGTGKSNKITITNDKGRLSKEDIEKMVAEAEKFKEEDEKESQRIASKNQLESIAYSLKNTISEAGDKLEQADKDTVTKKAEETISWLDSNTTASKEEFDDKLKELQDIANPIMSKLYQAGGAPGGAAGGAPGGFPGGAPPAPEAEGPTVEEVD

The target in the assay is Hsf1-GFP-FLAG (S. cerevisiae) (UniProt P10961). Briefly: co-IP; total yeast lysate on anti-FLAG M2 affinity gel, TEGN buffer (20 mM Tris-HCl pH 7.9, 0.5 mM EDTA, 10% glycerol, 50 mM NaCl), 2 h at 4 °C, eight washes, elution with FLAG peptide; immunoblot for Ssa1. (In general: Immunoblotting shows a protein as a band on a membrane.)

These are yes or no findings as the source states them, for the method shown. In cells and extracts the contact can be indirect. Some binding calls cover weakened binding; strength is not graded here.

Take “Ssa1 (WT), expressed in yeast (from UniProt P10591 1-642)”: the binding entry was “binds”.
With “Ssa1-2CD (C264D, C303D), expressed in yeast (from UniProt P10591 1-642)” the entry was “no binding”.
The entry for “Ssa1-2CS (C264S, C303S), expressed in yeast (from UniProt P10591 1-642)” is “binds”.
